PubChem BioAssay AID1259254 | NCATS | 2017

Aim: 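Genome-wide screen for genes that prevent DNA re-replication in cancer cells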 (primary screen)
Cell system: human HCT116 colorectal cancer cells
Reagent: single siRNA against human genes
Timing: 3 days
Measured: 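Nuclei stained with Hoechst and imaged; cell-cycle phase assigned by DNA content; G2 share scaled per plate, non-targeting siRNA 0%, GMNN siRNA 100%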
Scale: G2 robust z-score: higher = more G2 cells, more excess DNA replication
Rule for the call: 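Active siRNAs have a G2 robust z of 5 or more median absolute deviations over the median, which in these data means about 38% or higher of GMNN control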
This is an unselected part of about 59,000 deposited reagents. About 1,550 of all reagents (2.6%) count as active. 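G2 share is only a proxy for re-replication; each gene was hit by three separate siRNAs, and active genes were retested.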 Entries without a mark were called inactive. The numbers tell different reagents against one gene apart. Not all columns of the deposit are shown. The record does not give: the amount of reagent.

Target gene	reagent no.	G2 robust z-score
PRIMA1 (GeneID 145270)	1	1.52
PRIMA1 (GeneID 145270)	2	-0.808
PRIMA1 (GeneID 145270)	3	-1.11
TRIM33 (GeneID 51592)	1	-0.596
TRIM33 (GeneID 51592)	2	-0.831
TRIM33 (GeneID 51592)	3	1.48
RB1 (GeneID 5925)	1	0.0818
RB1 (GeneID 5925)	2	0.901
RB1 (GeneID 5925)	3	-1.1
POLR1HASP (GeneID 80862)	1	0.152
POLR1HASP (GeneID 80862)	2	-0.055
POLR1HASP (GeneID 80862)	3	-0.438
FRMPD1 (GeneID 22844)	1	6.63 (active)
FRMPD1 (GeneID 22844)	2	0.215
FRMPD1 (GeneID 22844)	3	-0.05
NR4A1 (GeneID 3164)	1	0.846
NR4A1 (GeneID 3164)	2	0.251
NR4A1 (GeneID 3164)	3	-0.873
UROC1 (GeneID 131669)	1	-0.263
UROC1 (GeneID 131669)	2	0.0715
UROC1 (GeneID 131669)	3	-0.441
TMEM102 (GeneID 284114)	1	-0.609
TMEM102 (GeneID 284114)	2	0.311
TMEM102 (GeneID 284114)	3	-0.685
DNLZ (GeneID 728489)	1	-0.919
DNLZ (GeneID 728489)	2	-0.623
DNLZ (GeneID 728489)	3	-0.548
STK17A (GeneID 9263)	1	0.14
STK17A (GeneID 9263)	2	-1.24
STK17A (GeneID 9263)	3	-0.979
OR52A4P (GeneID 390053)	1	0.621
OR52A4P (GeneID 390053)	2	0.325
OR52A4P (GeneID 390053)	3	-0.517
ARL13A (GeneID 392509)	1	0.385
ARL13A (GeneID 392509)	2	0.825
ARL13A (GeneID 392509)	3	3.16
WBP1 (GeneID 23559)	1	-0.148
WBP1 (GeneID 23559)	2	-1.32
WBP1 (GeneID 23559)	3	0.824
KRTAP12-1 (GeneID 353332)	1	-1.03
KRTAP12-1 (GeneID 353332)	2	-0.000275
KRTAP12-1 (GeneID 353332)	3	-0.378
IL1R1 (GeneID 3554)	1	0.807
IL1R1 (GeneID 3554)	2	-0.36
IL1R1 (GeneID 3554)	3	-0.79
HELLS (GeneID 3070)	1	-0.563
HELLS (GeneID 3070)	2	0.423
HELLS (GeneID 3070)	3	-0.264
RFTN1 (GeneID 23180)	1	2.53
RFTN1 (GeneID 23180)	2	-0.552
RFTN1 (GeneID 23180)	3	-1.25
ITGB6 (GeneID 3694)	1	-0.696
ITGB6 (GeneID 3694)	2	0.142
ITGB6 (GeneID 3694)	3	3.19
XPO5 (GeneID 57510)	1	-1.12
XPO5 (GeneID 57510)	2	-0.411
XPO5 (GeneID 57510)	3	-0.9
PPM1A (GeneID 5494)	1	1.74
PPM1A (GeneID 5494)	2	0.000747
PPM1A (GeneID 5494)	3	0.999
NEK2 (GeneID 4751)	1	-0.0855
NEK2 (GeneID 4751)	2	0.603
NEK2 (GeneID 4751)	3	-0.638
ABLIM2 (GeneID 84448)	1	2.29
ABLIM2 (GeneID 84448)	2	-1.02
ABLIM2 (GeneID 84448)	3	2.29
ZNF274 (GeneID 10782)	1	-0.977
ZNF274 (GeneID 10782)	2	-0.681
ZNF274 (GeneID 10782)	3	-0.299
LCE3C (GeneID 353144)	1	-0.481
LCE3C (GeneID 353144)	2	-0.251
LCE3C (GeneID 353144)	3	-0.952
CRIM1 (GeneID 51232)	1	-0.735
CRIM1 (GeneID 51232)	2	2.22
CRIM1 (GeneID 51232)	3	-0.334
LEMD3 (GeneID 23592)	1	2.29
LEMD3 (GeneID 23592)	2	0.601
LEMD3 (GeneID 23592)	3	0.466
B3GALT2 (GeneID 8707)	1	-0.339
B3GALT2 (GeneID 8707)	2	1.94
B3GALT2 (GeneID 8707)	3	-0.898
AIFM3 (GeneID 150209)	1	0.907
AIFM3 (GeneID 150209)	2	-0.713
AIFM3 (GeneID 150209)	3	-0.514
PIK3C2A (GeneID 5286)	1	-0.989
PIK3C2A (GeneID 5286)	2	2.44
PIK3C2A (GeneID 5286)	3	-0.485

Part of the list above, set out differently.
Target gene,reagent no.,G2 robust z-score
STK17A (GeneID 9263),2,-1.24
STK17A (GeneID 9263),3,-0.979
OR52A4P (GeneID 390053),1,0.621
OR52A4P (GeneID 390053),2,0.325
OR52A4P (GeneID 390053),3,-0.517
ARL13A (GeneID 392509),1,0.385
ARL13A (GeneID 392509),2,0.825
ARL13A (GeneID 392509),3,3.16
WBP1 (GeneID 23559),1,-0.148
WBP1 (GeneID 23559),2,-1.32
WBP1 (GeneID 23559),3,0.824
KRTAP12-1 (GeneID 353332),1,-1.03
KRTAP12-1 (GeneID 353332),2,-0.000275
KRTAP12-1 (GeneID 353332),3,-0.378
